Results are given in words; binding and its absence hold for the method and conditions named. Some binding calls cover weakened binding; strength is not graded here.

Chains of the proteins cited; added tags and fusions are not shown. Lines headed by an entry give the natural chain unless they say otherwise; changes in a name come on top.
UniProt Q15303: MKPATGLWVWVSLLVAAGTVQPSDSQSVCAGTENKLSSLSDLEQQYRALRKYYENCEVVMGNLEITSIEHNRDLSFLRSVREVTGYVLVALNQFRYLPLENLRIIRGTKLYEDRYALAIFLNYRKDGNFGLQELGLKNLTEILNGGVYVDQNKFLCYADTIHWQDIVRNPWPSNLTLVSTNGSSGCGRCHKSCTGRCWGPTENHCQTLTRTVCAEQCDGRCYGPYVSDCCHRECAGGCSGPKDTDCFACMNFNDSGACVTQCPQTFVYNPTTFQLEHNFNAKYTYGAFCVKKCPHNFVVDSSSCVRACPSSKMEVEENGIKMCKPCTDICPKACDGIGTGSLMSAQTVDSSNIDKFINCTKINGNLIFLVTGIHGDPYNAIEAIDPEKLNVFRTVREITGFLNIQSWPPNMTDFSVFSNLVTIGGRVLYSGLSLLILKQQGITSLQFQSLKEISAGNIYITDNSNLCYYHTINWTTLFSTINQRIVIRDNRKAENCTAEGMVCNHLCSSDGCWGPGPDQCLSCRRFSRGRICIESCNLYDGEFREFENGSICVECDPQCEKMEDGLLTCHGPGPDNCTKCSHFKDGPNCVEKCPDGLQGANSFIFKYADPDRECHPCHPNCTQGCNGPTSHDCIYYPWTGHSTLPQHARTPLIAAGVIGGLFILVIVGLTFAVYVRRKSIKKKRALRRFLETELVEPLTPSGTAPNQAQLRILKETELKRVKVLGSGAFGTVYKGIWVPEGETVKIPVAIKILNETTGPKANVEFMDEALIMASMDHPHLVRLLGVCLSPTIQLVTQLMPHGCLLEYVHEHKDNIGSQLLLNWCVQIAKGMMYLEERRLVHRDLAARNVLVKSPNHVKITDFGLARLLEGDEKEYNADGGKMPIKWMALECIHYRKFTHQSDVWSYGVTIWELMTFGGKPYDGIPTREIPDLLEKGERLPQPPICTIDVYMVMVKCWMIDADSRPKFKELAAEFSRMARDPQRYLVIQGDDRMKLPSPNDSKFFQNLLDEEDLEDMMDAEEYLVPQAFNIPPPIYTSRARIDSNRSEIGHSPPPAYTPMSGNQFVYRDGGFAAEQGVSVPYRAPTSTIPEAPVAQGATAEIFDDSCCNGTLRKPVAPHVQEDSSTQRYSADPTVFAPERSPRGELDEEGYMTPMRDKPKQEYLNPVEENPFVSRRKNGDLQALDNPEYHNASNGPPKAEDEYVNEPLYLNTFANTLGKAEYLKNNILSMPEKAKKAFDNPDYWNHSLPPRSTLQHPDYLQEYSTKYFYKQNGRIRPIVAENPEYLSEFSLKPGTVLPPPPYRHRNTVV

For this assay, the target named is HER2/HER4 IgG heterodimers (human) (UniProt P04626+P01857+Q15303). As to the kind of experiment: Western (ligand) blot under non reducing conditions, probed with HER2/HER4 IgG heterodimers.

B1: γ-HRG, partially purified from conditioned medium of MDA-MB-175 cells (ligand)
chain: MDVKERKPYRSLTRRRDAERRYTSSSADSEEGKAPQKSYSSSETLKAYDQDARLAYGSRVKDIVPQEAEEFCRTGANFTLRELGLEEVTPPHGTLYRTDIGLPHCGYSMGAGSDADMEADTVLSPEHPVRLWGRSTRSGRSSCLSSRANSNLTLTDTEHENTETDHPGGLQNHARLRTPPPPLSHAHTPNQHHAASINSLNRGNFTPRSNPSPAPTDHSLSGEPPAGGAQEPAHAQENWLLNSNIPLETRNLGKQPFLGTLQDNLIEMDILGASRHDGAYSDGHFLFKPGGTSPLFCTTSPGYPLTSSTVYSPPPRPLPRSTFARPAFNLKKPSKYCNWKCAALSAIVISATLVILLAYFVAMHLFGLNWHLQPMEGQMYEITEDTASSWPVPTDVSLYPSGGTGLETPDRKGKGTTEGKPSSFFPEDSFIDSGEIDVGRRASQKIPPGTFWRSQVFIDHPVHLKFNVSLGKAALVGIYGRKGLPPSHTQFDFVELLDGRRLLTQEARSLEGTPRQSRGTVPPSSHETGFIQYLDSGIWHLAFYNDGKESEVVSFLTTAIALPPRLKEMKSQESAAGSKLVLRCETSSEYSSLRFKWFKNGNELNRKNKPQNIKIQKKPGKSELRINKASLADSGEYMCKVISKLGNDSASANITIVESNEIITGMPASTEGAYVSSESPIRISVSTEGANTSSSTSTSTTGTSHLVKCAEKEKTFCVNGGECFMVKDLSNPSRYLCKCPNEFTGDRCQNYVMASFYSTSTPFLSLPE
As to B1, the binding result is reported as “binds”.

(Values after patent US20020042087A1.)
